# Literature values as cited in PMC12621045, “Development of Purine and Pyrrolopyrimidine Scaffolds as Potent, Selective, and Brain Penetrant NUAK1 Inhibitors” (ACS Medicinal Chemistry Letters, 2025).
# Tested on: NUAK (1 or 2)
# Design: method as in ChEMBL33
# Conditions: compared with NUAK1; ref ChEMBL33; cited from earlier work
row,Structure (SMILES),# targets with higher potency
1,CCN(CC)CCNC(=O)c1c(C)[nH]c(/C=C2\C(=O)Nc3ccc(F)cc32)c1C [Sunitinib],53
2,O=C(NCC(F)(F)F)c1cc(-c2cnn3cc(-c4ccc(OCCN5CCCCC5)cc4)cnc23)cs1 [CHEMBL4569508],4
3,COc1cc(N2CCC(N3CCN(C)CC3)CC2)ccc1Nc1ncc(Cl)c(Nc2ccccc2P(C)(C)=O)n1 [Brigatinib],5
4,COc1c(Nc2ncc(Cl)c(N[C@H]3[C@@H](C(N)=O)[C@@H]4C=C[C@H]3C4)n2)ccc2c1CC[C@@H](N1CCOCC1)CC2 [CHEMBL2064666],4
5,Cn1cc(-c2cnc3c(-c4csc(C(=O)NCC(F)(F)F)c4)cnn3c2)cn1 [CHEMBL4550702],3
6,C=CC(=O)Nc1cc(Nc2ncc(Cl)c(O[C@@H]3CO[C@H]4[C@@H]3OC[C@H]4OC)n2)ccc1N(C)CCN(C)C [CHEMBL5193702],1
7,CC1(C)C(=O)N([C@H]2CCc3c(O)cccc32)c2nc(Nc3ccccc3)ncc21 [CHEMBL3884319],1
8,CCCCNc1ncc2c(-c3ccc(CN4CCN(C)CC4)cc3)cn([C@H]3CC[C@H](O)CC3)c2n1 [UNC2025],6

# Same assay, conditions: compared with NUAK2; ref ChEMBL33; cited from earlier work
row,Structure (SMILES),# targets with higher potency
1,Nc1nc(Nc2ccc(S(N)(=O)=O)cc2)nn1C(=O)c1c(F)cccc1F [JNJ-7706621],7
2,CCn1c(-c2nonc2N)nc2c(C#CC(C)(C)O)ncc(OC[C@H]3CCCNC3)c21 [GSK-690693],19
3,COC(=O)c1ccc2c(c1)NC(=O)/C2=C(\Nc1ccc(N(C)C(=O)CN2CCN(C)CC2)cc1)c1ccccc1 [Nintedanib],34
4,CO[C@@H](C(=O)N1Cc2n[nH]c(NC(=O)c3ccc(N4CCN(C)CC4)cc3)c2C1)c1ccccc1 [Danusertib],2
5,COc1cc(N2CCC(N3CCN(C)CC3)CC2)ccc1Nc1ncc(Cl)c(Nc2ccccc2S(=O)(=O)C(C)C)n1 [NVP-TAE684],9
6,Cc1nc(N)sc1-c1ccnc(Nc2ccc(N3CCOCC3)cc2)n1 [CYC-116],3
